This note sets out measurements from article PMC6783944.

Chains of the proteins cited; added tags and fusions are not shown.
UniProt Q9Y6X1: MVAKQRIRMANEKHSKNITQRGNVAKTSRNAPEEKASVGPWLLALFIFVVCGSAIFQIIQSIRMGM

Results are given in words; binding and its absence hold for the method and conditions named. Binding seen in cells or lysates may run through a third protein. Some entries that bind do so weakly or less than the wild type.

The target in test [1] is HA-tagged DENV-2 NS4B (pLKO-AS2-NS4B-HA) (dengue virus type 2 (DENV-2), strain 16681) (UniProt P29990). Nature of the test: co-IP.
Test [2] addresses Flag-tagged SERP1 (pLKO-AS2-Flag-SERP1) (human) (UniProt Q9Y6X1). Nature of the test: co-IP.
The target in test [3] is NS2B-LgBit (DENV-2 NS2B fused to the large BiT of NanoLuc luciferase) (dengue virus type 2 (DENV-2), strain 16681) (UniProt P29990). Nature of the test: split reporter.

Turning to “Flag-tagged SERP1 (pLKO-AS2-Flag-SERP1) (from UniProt Q9Y6X1 1-66)”, the binding entry in test [1] is recorded as “binds”. On to “HA-tagged DENV-2 NS4B (pLKO-AS2-NS4B-HA) (from UniProt P29990 2244-2491)”, for which, in test [2], the binding result is on record as “binds”. Turning to “SmBit-SERP1 (SERP1 fused to the small BiT of NanoLuc luciferase) (from UniProt Q9Y6X1 1-66)”, in test [3], the binding entry was “no binding”.
